Experimental data: the supplement of paper PMC5949888
Most values lie at the floor of the assay. Slopes are relative: functional sequences can read slightly below zero.

tested on: Saccharomyces cerevisiae PS128 hsf1 delta, HSF1(1-493) fusion; assay: growth estimate (transactivation domain function in HSF1 fusion, heat-shock survival) (a.u. (slope of normalised read count over time)); higher = stronger growth at 37°C, i.e. more transactivation activity; conditions: library: random library

| Substance | growth estimate |
| --- | --- |
| RQATVGSRGP | < -0.25 |
| TRCLG | < -0.25 |
| TLKQPIRDN | < -0.25 |
| RPLPRT | < -0.25 |
| PASLWGIFHLP | < -0.25 |
| HTGLGVHLLTM | < -0.25 |
| NSARVLLRSDWILNEDAVLV | -0.246 |
| YESSFSCLSNASIAAITPGY | -0.231 |
| LDRGLSDTARLQRFPSSQAR | < -0.25 |
| DSSACFTDGACRGP | < -0.25 |
| LVRLHSSLELIRPELNLANE | < -0.25 |
| LGMDGVFLSSTVGLSADSGG | < -0.25 |
| PQVIGWTFVG | < -0.25 |
| FSRGVAS | < -0.25 |
| LATWNCR | < -0.25 |
| WYSSTTERALDGLNFLLSR | -0.173 |
| EAWQLRGHP | < -0.25 |
| TATAHPNCETV | < -0.25 |
| ATGAHFPG | < -0.25 |
| LGVVIKTSDGKFPGYQRFAS | < -0.25 |
| HLEAGAVSLPAMAVSTRVEC | < -0.25 |
| GGRCRNGTLKGAAHEDK | < -0.25 |
| SGALLKCLGPSAVRRL | < -0.25 |
| SATGIVWQMKKEFHGANRGS | < -0.25 |
| REVV | < -0.25 |

| Substance | growth estimate |
| --- | --- |
| HNLS | < -0.25 |
| RHRLCRETPTAVRTALLGKV | < -0.25 |
| TADGLQHKTLQKQILG | < -0.25 |
| AIL | -0.0345 |
| SIVQPGFGRKAGHVCDGILR | < -0.25 |
| RGALFNAILIRLDFAFSPTE | < -0.25 |
| YRCHRPMS | < -0.25 |
| RIDYSHDFTELNRIGVGVFT | < -0.25 |
| SSWGRGNNVLVSGVIMWNSR | < -0.25 |
| TGNGILRLHGATEGFWIRFA | < -0.25 |
| VRSSVPVYSQYLESSPRGLM | < -0.25 |
| NNIQISRRDYPGWISLCVAT | < -0.25 |
| SKCTLSSSTGGSSWFVTIY | < -0.25 |
| SVELVLETEYIRDTRGISSP | < -0.25 |
| TRMSPRNVVFAS | < -0.25 |
| LRSLRKV | < -0.25 |
| ENMDSIAV | < -0.25 |
| YVKQTLGISCLCGNWVLLKE | < -0.25 |
| GRTWAQ | < -0.25 |
| GMSAEFRTFTPWLIIERSHS | < -0.25 |
| RDL | < -0.25 |
| AVCTKAGGLWGARIFNIMTG | < -0.25 |
| RIPGMGRLCRLRISTVMCIS | < -0.25 |
| PFTHFID | < -0.25 |
| DRTVVL | < -0.25 |

| Substance | growth estimate |
| --- | --- |
| RQLGMHRPGLANPRCSSGEA | < -0.25 |
| LLGS | < -0.25 |
| RLAGPGSK | < -0.25 |
| HGSEGGSCVLFAKALHLLKS | < -0.25 |
| RLSRRFGAIRQP | < -0.25 |
| DTSRSSAALIPAPARVTHYA | < -0.25 |
| GRVI | < -0.25 |
| RSVCIGYTGMFVCVRHTRLL | < -0.25 |
| QSATVSTKSRFALGTLR | < -0.25 |
| KRRIPKSARPPARPSRLRDV | < -0.25 |
| GIVRPFILAQILVIGFRPRQ | < -0.25 |
| DACDGQNPDGSSRSVRLVLS | < -0.25 |
| CVDINVTVSTPICWFLWLDA | < -0.25 |
| YGHPRLGAIGKGDRPVAYAI | -0.25 |
| DRRESITGGSPVWSGSIARP | < -0.25 |
| YARFPRVS | < -0.25 |
| RPFGISGIAILVTVVVGSHD | < -0.25 |
| RRKR | < -0.25 |
| YGFATLVRYNK | < -0.25 |
| DESQKSHGRGGCPNLWVLLI | < -0.25 |
| VKSIFL | < -0.25 |
| HCNRQILDLPRKGIRS | < -0.25 |
| KLCCAHLLSAGCSLNVTSAG | < -0.25 |
| GGYQDYENVM | < -0.25 |
| CLCTSLCGHELFRSGTCQER | < -0.25 |

Taken from above.
Entry for DRRESITGGSPVWSGSIARP under growth estimate: < -0.25
Entry for RLSRRFGAIRQP under growth estimate: < -0.25
Entry for HGSEGGSCVLFAKALHLLKS under growth estimate: < -0.25
Entry for DESQKSHGRGGCPNLWVLLI under growth estimate: < -0.25

More records follow:

| Substance | growth estimate |
| --- | --- |
| PKISYVRGGLRQHDAEHLLR | < -0.25 |
| KFVGIALLCLKHNPKHRAAV | < -0.25 |
| CKSVCLRLYVM | < -0.25 |
| DSLK | < -0.25 |
| YASVSRVVYPYVGGIVHEYG | < -0.25 |
| FCLRALAILIQLISDKLRLV | < -0.25 |
| PAVRLYSTPPCQICPAPRPS | < -0.25 |
| ELTSVLGEGSNGHASCPSVY | < -0.25 |
| LRECRGHPVIRTIA | < -0.25 |
| NHSTGYVKGGFRS | < -0.25 |
| NRFKVFYSRTG | < -0.25 |
| VTTAKKLLAKEVV | < -0.25 |
| RFLGGTQ | < -0.25 |
| RWGETLFDWPNRVILRPDPF | -0.157 |
| PLNFWLLCPVGKQVGQSTGR | < -0.25 |
| RAWWSLNHVGRVKRPFGQIL | < -0.25 |
| ASQGVCHRPAP | < -0.25 |
| DPALRVPILVWGSSSVLVDH | < -0.25 |
| GMRGP | < -0.25 |
| RRWRQG | < -0.25 |
| SLG | < -0.25 |
| LGVFKLQRGHTHPRLAASNC | < -0.25 |
| WDGSCIALGGGAISVGSGGA | < -0.25 |
| WGGVEWRGFRI | < -0.25 |
